# The whole screen tested about 320,000 compounds, of which about 620 (0.19%) were called active. The inconclusive results got no clear call from the source; some entries with a clear call stand among them for comparison. Rule as the data show it: active = activation above about 80%; inconclusive = between about 30% and that limit; inactive = weaker than that.
# Sequences of proteins named here, by UniProt entry; tags and fusion partners are left off.
# UniProt Q8NER1, whole entry, looked up: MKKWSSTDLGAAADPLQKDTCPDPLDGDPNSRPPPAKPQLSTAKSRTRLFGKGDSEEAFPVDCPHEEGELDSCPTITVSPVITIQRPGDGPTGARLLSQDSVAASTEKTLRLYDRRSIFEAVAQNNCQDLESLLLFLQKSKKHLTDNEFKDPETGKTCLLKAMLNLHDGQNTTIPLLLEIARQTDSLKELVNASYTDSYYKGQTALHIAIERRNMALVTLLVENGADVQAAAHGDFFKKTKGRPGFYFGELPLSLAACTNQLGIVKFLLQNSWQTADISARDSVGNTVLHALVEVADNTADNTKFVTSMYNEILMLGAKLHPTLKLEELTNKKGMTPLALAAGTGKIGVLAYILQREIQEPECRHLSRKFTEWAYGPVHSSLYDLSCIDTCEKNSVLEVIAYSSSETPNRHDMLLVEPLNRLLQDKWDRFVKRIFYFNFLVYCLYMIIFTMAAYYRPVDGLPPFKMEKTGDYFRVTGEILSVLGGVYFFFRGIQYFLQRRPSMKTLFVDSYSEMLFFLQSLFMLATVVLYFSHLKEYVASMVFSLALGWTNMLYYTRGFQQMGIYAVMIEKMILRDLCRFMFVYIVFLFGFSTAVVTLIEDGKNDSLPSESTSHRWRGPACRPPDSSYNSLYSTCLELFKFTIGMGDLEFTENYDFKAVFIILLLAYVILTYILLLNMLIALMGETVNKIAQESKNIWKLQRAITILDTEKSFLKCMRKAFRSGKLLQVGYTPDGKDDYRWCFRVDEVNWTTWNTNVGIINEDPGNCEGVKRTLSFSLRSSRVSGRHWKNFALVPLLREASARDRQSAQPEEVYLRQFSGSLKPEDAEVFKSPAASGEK
# Target: Transient receptor potential cation channel subfamily V member 1 (Homo sapiens) (UniProt Q8NER1)
# Test: HTS Assay for Compounds that Act as Agonists of the Vanilloid Receptor 1; also: 0% is about no effect
# Details: TRPV1-expressing cells, Fluo-8 calcium influx, agonist mode; at 8.33 µM, active compounds read high
# How it was run: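 Cells expressing TRPV1 were dye-loaded with Fluo-8 and read kinetically: 10 s baseline, 3 min after compound (agonist portion), then 2 min after EC20 capsaicin (allosteric enhancer portion). Calcium-bound dye fluorescence at 480/520 nm.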
row,SMILES,activation
1,COc1cc(CNc2ccc3[nH]c(=O)[nH]c3c2)cc(Br)c1OCc1ccc(F)cc1,inconclusive: 76.8%
2,COc1cc(NC(=O)c2ccco2)c(OC)cc1NC(=O)Nc1ccc(Cl)cc1,inconclusive: 35.3%
3,CCc1ccc(C(=O)CSc2n[nH]c(-c3ccncc3)n2)cc1,inactive: -5.37%
4,CCN1C(=O)c2ccccc2Sc2ccc(C(=O)NCCC(C)C)cc21,inconclusive: 34.9%
5,CC1CCN(c2ccc(NC(=O)c3ccc(Br)o3)cc2)CC1,inconclusive: 67.7%
6,Cc1ccc(-c2nn(-c3ccc(F)cc3)cc2C(=O)NCC2CCCO2)cc1 (stereo not given),inconclusive: 65.8%
7,Cc1oc(-c2cccc(C(F)(F)F)c2)nc1CN1CCOCC1,inactive: 6.73%
8,CCn1cc(C(=O)NCCC2=CCCCC2)c(=O)c2cc(S(=O)(=O)N(C)C)ccc21,inconclusive: 66.4%
9,CCOC(=O)c1ccc(NC(=O)NCc2ccccc2OC)cc1,active: 83.6%
10,CCN(CC)c1ccc(/C=C2\C(=N)N3N=C(CC(=O)N4CCOCC4)SC3=NC2=O)cc1,inconclusive: 46.9%
11,Cc1cc(C)cc(NC(=O)C(C)N2C(=O)c3ccccc3C2=O)c1 (stereo not given),inactive: -1.17%
12,CC1CC1C(=O)N(C)CC(=O)Nc1cccc(F)c1 (stereo not given),inactive: 0.457%
13,O=C(CCN1CCCC1Cc1ccccc1)c1ccc2c(c1)OCCO2 (stereo not given),inconclusive: 31.9%
14,O=C(NCCc1ccccc1)c1ccc2c(c1)OCCO2,inconclusive: 57.9%
15,Cc1ccc(-c2cn(-c3ccc(OC(F)F)cc3)c3[n+]2CCCCC3)cc1,inactive: -3.12%
16,Cc1ccc(S(=O)(=O)CC(=O)N2CCN(c3ccccc3F)CC2)cc1,inconclusive: 51.4%
17,CC1CCN(c2ccc(S(=O)(=O)Nc3cc(C(=O)O)cc(C(=O)O)c3)cc2[N+](=O)[O-])CC1,inconclusive: 40.4%
18,COC(=O)COc1c(Cl)cc(Cl)c2ccc(C)nc12,inactive: 16.3%
19,COc1ccccc1NC(=O)CC(=O)Nc1ccccc1OC,inactive: -1.96%
20,O=C(c1cnsn1)N1CCCC(Nc2ccc(F)c(F)c2)C1 (stereo not given),inconclusive: 70.1%
21,O=C(NCCCN1CCOCC1)c1cc(-c2cccc(Br)c2)nc2ccccc12,inconclusive: 42.8%
22,O=C(CC1C=Cc2ccccc2N1C(=O)c1ccccc1)c1ccccc1 (stereo not given),inconclusive: 60.8%
23,Cc1ccc(NC(=O)c2ccc(S(=O)(=O)N3CCCCC3)cc2)nc1,inconclusive: 56.3%
24,CC(C)CN(CC(C)C)S(=O)(=O)N1CCC(C(=O)NC2CCCCCCC2)CC1,active: 83.7%
25,COc1ccc(CN2C(=O)C(CC(C)C)Nc3ncnc(N4CCN(c5ccccn5)CC4)c32)cc1 (stereo not given),inconclusive: 41.3%

# Among those listed so far, these have bromine.
row,SMILES,activation
1,COc1cc(CNc2ccc3[nH]c(=O)[nH]c3c2)cc(Br)c1OCc1ccc(F)cc1,inconclusive: 76.8%
5,CC1CCN(c2ccc(NC(=O)c3ccc(Br)o3)cc2)CC1,inconclusive: 67.7%
21,O=C(NCCCN1CCOCC1)c1cc(-c2cccc(Br)c2)nc2ccccc12,inconclusive: 42.8%
